# Values of other authors as cited in patent US20070232589A1, “Pharmaceutical Composition And Method For Treating Neurodegenerative Disorders” (Myriad Genetics, Incorporated, priority 2004, published 2007).
# At least one structure is not confirmed: it was looked up by name or label, or the drawing left a doubt.
# Settings: several recent clinical trials
smiles,measurement,value
Cc1ccc(-c2cc(C(F)(F)F)nn2-c2ccc(S(N)(=O)=O)cc2)cc1 [Celecoxib],efficacy for the treatment of AD,failed to show efficacy
